PMC6322289

Molecular target: chitinase (Hevea brasiliensis (endogenous in latex of clone CATAS7-33-97))
Assay: SEC; clarified B-serum on Sephacryl S-200HR (70 x 2.6 cm), eluted with 50 mM Tris-HCl + 25 mM NaCl, pH 7.2; peaks read by Tricine-SDS-PAGE and western blotting; control elution at pH 5.5

binding: binds
B1: pro-hevein (protein, UniProt P02877 18-204)
chain: EQCGRQAGGKLCPNNLCCSQWGWCGSTDEYCSPDHNCQSNCKDSGEGVGGGSASNVLATYHLYNSQDHGWDLNAASAYCSTWDANKPYSWRSKYGWTAFCGPVGAHGQSSCGKCLSVTNTGTGAKTTVRIVDQCSNGGLDLDVNVFRQLDTDGKGYERGHITVNYQFVDCGDSFNPLFSVMKSSVIN

These are yes or no findings as the source states them, for the method shown. Binding can be weak; no strength is given.
